Test results from patent US20240180963A1.
Residue numbers refer to the chain shown, from its start. Results are given in words; binding and its absence hold for the method and conditions named. Some binding calls cover weakened binding; strength is not graded here.

Protein sequences, listed by entry. Tags and fused reporters are not part of them. Residues count along the entry.
UniProt Q07108, residues 62-199: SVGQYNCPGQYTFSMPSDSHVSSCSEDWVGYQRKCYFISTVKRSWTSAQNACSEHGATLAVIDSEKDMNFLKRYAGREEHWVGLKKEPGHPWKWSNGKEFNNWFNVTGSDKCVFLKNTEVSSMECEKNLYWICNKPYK

T1: CD84 (antigen used for phage panning and ELISA) (human) (UniProt Q9UIB8)
T1 sequence (looked up): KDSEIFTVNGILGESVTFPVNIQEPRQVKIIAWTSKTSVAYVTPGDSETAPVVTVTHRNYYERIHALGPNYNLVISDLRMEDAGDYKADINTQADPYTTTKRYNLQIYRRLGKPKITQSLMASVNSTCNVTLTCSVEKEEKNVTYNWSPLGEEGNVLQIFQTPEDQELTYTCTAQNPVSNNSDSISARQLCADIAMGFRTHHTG

B1: 14721-P1-H3 scFv (scFv)
scFv: QVQLQQSGPGLVKPSQTLSLTCDISGDSVFSNTASWNWIRQSPSRGLEWLGKTEYRSQWLHEYAPSVRSRIAIRPDTSKNQVSLQLSFVTPEDTAVYYCVRDSYNGYAFDGFDTWGQGTLVTVSSGGGGSGGGGSGGGGSGGGGSQSVVTQPPSVSAAPGQKVTISCSGRNSNIANNFVSWYRQLPGTAPKLLIYDNNKRPSGIPDRFSGSKSGTSATLAITGLQTGDEADYYCESWDSSLTAEVFGTGTKVTVL
B2: 14721-P1-G1 scFv (scFv)
scFv: QVQLQQSGPGLVKPSQTLSLTCAISGDSVFSTTASWNWIRQSPSRGLEWLGKTEYRSKWFDEYAPSVKGRIAIRPDTSRNQVSLQLNSMTPEDTAVYFCVRDSYNGYDFDGFDIWGQGTTVTVSSGGGGSGGGGSGGGGSGGGGSQSVVTQPPSVSAAPGQKVTISCSGSSSNIGNNYVSWYQQLPGTAPKLLIYDNNKRPSGIPDRFSGSKSGTSATLGITGLQTGDEADYYCGTWDSSLSAEMFGGGTKVTVL
B3: 14722-P1-F12 scFv (scFv)
scFv: QVQLQQSGPGLVKPSQTLSLTCAISGDSVSSNSASWNWIRQSPSRGLEWLGKVEYRSKWYDEYAPSVKSRIAIRPDTSKNQVSLHLISVTPDDTAVYYCARDSYNGHAFDGFDVWGQGTMVTVSSGGGGSGGGGSGGGGSGGGGSQSVVTQPPSVSAAPGQKVTISCSGSSSNIGNNYVSWYQQLPGTAPKLLIYDNNKRPSGIPDRFSGSKSGTSATLGITGLQTGDEADYYCGTWDSSLSAEVFGGGTKVTVL
B4: 14722-P1-B8 scFv (scFv)
scFv: QVQLQQSGPGLVKPSQTLSLTCAISGDSVSSNSASWNWIRQSPSRGLEWLGKVEYRSKWYDEYAPSVKSRIAIRPDTSKNQVSLHLISVTPDDTAVYYCARDSYNGHAFDGFDVWGQGTMVTVSSGGGGSGGGGSGGGGSGGGGSQSVLTQPPSLSAAPGQRVTISCSGTTSNIANNFVSWYQQLSGSAPKLLINDNNKRPSGIPDRFSGSKSGASATLAITGLQTEDEADYYCGVWDNSLNAEVFGGGTKVTVL
B5: F1 scFv (scFv)
scFv: QVQLQQSGPGLVKPSQTLSLTCAISGDSVFSNSASWNWIRQSPSRGLEWLGKTEYRSKWFDEYAPSVKGRIAIRPDTSKNQVSLQLNSVTPEDTAVYYCVRDSYNGYDFDGFDIWGQGTLVTVSSGGGGSGGGGSGGGGSGGGGSQSVLTQPPSVSAAPGQQVIISCSGSSSNVGNNYVAWYQQVPGAAPRLLIYDNYKRPSGIPDRFSGSKSGTSATLGITGLQSGDEADYYCGSWDSSLSAEVFGGGTKLTAL
B6: C1 scFv (scFv)
scFv: QVQLQQSGPGLVKPSQTLSLTCAISGDSVSSNSASWNWIRQSPSRGLEWLGKTEYRSKWYYEFAPSVKSRITITPDTSKNQFSLQLNSVTPEDTAVYYCVRDSYNGYDFDGFDIWGQGTLVTVSSGGGGSGGGGSGGGGSGGGGSQSVLTQPPSVSAAPGQKVTISCSGSSSNIGSNYVAWYQQLPGTAPKLLIYDTNKRPSGIPDRFSGSKSGTSATLGITGLQTGDEADYYCGTWDSSLSAEVFGTGTKVTVL
B7: A1 scFv (scFv)
scFv: QVQLQQSGPGLVQPSRTLSLTCAISGDSISSNTASWNWIRQSPSRGLEWVGKTEYRSGWFFEYAPSVGGRVNISPDTSKNQFSLQLNSVTPEDTAVYFCARDSYNDYDNDGFDIWGQGTLVTVSSGGGGSGGGGSGGGGSGGGGSQSVLTQPPSVSAAPGQKVTISCSGSSSNIGSNYVAWYQQLPGTAPKLLIYDTNKRPSGIPDRFSGSKSGTSATLGITGLQTGDEADYYCGTWDSSLSAEVFGTGTKVTVL
B8: F2 scFv (scFv)
scFv: QVQLQQSGPGLVKPSQTLSLTCAISGDSVFSNSASWNWIRQSPSRGLEWLGKTEYRSKWFDEYAPSVKGRIAIRPDTSKNQVSLQLNSVTPEDTAVYYCVRDSYNGYDFDGFDIWGQGTLVTVSSGGGGSGGGGSGGGGSGGGGSQSVLTQPPSVSAAPGQKVTISCSGGSSNIEKNYVSWYQQLPGTAPKLLIYDTNKRPSGIPDRFSGSKSGTSATLGITGLQTGDEADYYCGAWDNILNSEMFGGGTKLTVL
B9: C2 scFv (scFv)
scFv: QVQLQQSGPGLVKPSQTLSLTCAISGDSVSSNSASWNWIRQSPSRGLEWLGKVEYRSKWYDEYAPSVKSRIAIRPDTSKNQVSLHLISVTPDDTAVYYCARDSYNGHAFDGFDVWGQGTLVTVSSGGGGSGGGGSGGGGSGGGGSQSVLTQPPSVSAAPGQKVTISCSGSSSNIGDNLVSWYQQLPGTAPKLLIYDNNKRPSGIPDRFSGSKSGTSATLDITGLQTGDEADYYCESWDNNLTAEVFGTGTKVTVL
B10: H2 scFv (scFv)
scFv: B2 scFv with T32N, T33S, R79K, M89V, F98Y, T120L, M245V, V252L

Target: CD69 (antigen used for phage panning and ELISA) (human) (UniProt Q07108)
Experiment: specific scFvs identified within a human naive phage library

Row | binding | Binder
1 | binds | B1
2 | binds | B2

Target: T1, CD84 (antigen used for phage panning and ELISA) (human)
Experiment: as above

Row | binding | Binder
3 | binds | B3
4 | binds | B4

Target: CD69 (antigen used for phage panning and ELISA) (human) (UniProt Q07108)
Experiment: ELISA validation of phage display clones

Row | binding | Binder
5 | binds | B5
6 | binds | B6
7 | binds | B7
8 | binds | B1
9 | binds | B8
10 | binds | B9
11 | binds | B2
12 | binds | B10

Target: T1, CD84 (antigen used for phage panning and ELISA) (human)
Experiment: ELISA validation of phage display clones

Row | binding | Binder
13 | binds | B3
14 | binds | B4
